For the assay, the target named is T1, Mdm2 (zebrafish (endogenous in zebrafish embryos)) (UniProt O42354).
T1 sequence: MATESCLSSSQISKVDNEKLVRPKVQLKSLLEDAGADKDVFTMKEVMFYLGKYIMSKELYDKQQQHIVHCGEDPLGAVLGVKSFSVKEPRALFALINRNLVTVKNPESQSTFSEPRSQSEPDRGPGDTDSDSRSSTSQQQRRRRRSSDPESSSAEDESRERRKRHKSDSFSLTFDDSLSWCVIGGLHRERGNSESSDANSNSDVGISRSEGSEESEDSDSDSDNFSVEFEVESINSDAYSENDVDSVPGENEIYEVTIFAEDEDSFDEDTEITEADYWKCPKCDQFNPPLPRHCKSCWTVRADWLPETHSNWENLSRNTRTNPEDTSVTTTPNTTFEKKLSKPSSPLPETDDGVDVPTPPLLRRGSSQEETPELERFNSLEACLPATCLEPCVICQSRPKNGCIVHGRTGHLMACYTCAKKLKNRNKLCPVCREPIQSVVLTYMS
Nature of the assay: co-IP.

Results are given in words; binding and its absence hold for the method and conditions named. In cells and extracts the contact can be indirect. Some results given as binding are weak or reduced against the parent protein; the word gives no strength.

B1: p53 protein (protein, UniProt P79734 1-373)
chain: MAQNDSQEFAELWEKNLIIQPPGGGSCWDIINDEEYLPGSFDPNFFENVLEEQPQPSTLPPTSTVPETSDYPGDHGFRLRFPQSGTAKSVTCTYSPDLNKLFCQLAKTCPVQMVVDVAPPQGSVVRATAIYKKSEHVAEVVRRCPHHERTPDGDNLAPAGHLIRVEGNQRANYREDNITLRHSVFVPYEAPQLGAEWTTVLLNYMCNSSCMGGMNRRPILTIITLETQEGQLLGRRSFEVRVCACPGRDRKTEESNFKKDQETKTMAKTTTGTKRSLVKESSSATLRPEGSKKAKGSSSDEEIFTLQVRGRERYEILKKLNDSLELSDVVPASDAEKYRQKFMTKNKKENRESSEPKQGKKLMVKDEGRSDSD
B1: the binding result is listed as “binds”.
